Reference: PubChem BioAssay AID720505 (Drosophila RNAi Screening Center, 2013)
Purpose: 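Fly regulators or components of the CRAC channel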 (primary screen). System: Drosophila S2R+ cells. Reagents: long dsRNA against Drosophila genes. Treatment: thapsigargin (2 µM) in calcium-free buffer to empty internal stores, then 2 mM calcium added back. Measured: 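Fluo-4 signal in 384-well plates read on a FLIPR after thapsigargin (2 µM, calcium-free) store depletion and 2 mM calcium add-back; unnormalised mean endpoint per well; screen run twice, selected wells retested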. Direction: calcium signal and retest calcium signal: higher = more calcium entry after store depletion. Hit rule: 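About 1500 genes called as lowering calcium entry, by varying amounts, judged against per-plate control wells with STIM1 as positive and Rho1 as negative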. Calls: active = called as lowering calcium entry; inactive = not called.
In all, the deposit lists about 20,000 reagents; below is an unselected part of those with a known target gene and a result. In the full data, about 2,100 (10%) were called active. 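Raw plate signals without normalisation; calls rest on control-based scores that were not deposited; replicate 2 separates called from uncalled poorly.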 No sequences are given here. The record does not give: the amount of reagent, the time to read-out.

gene	dsRNA	calcium signal, replicate 1	calcium signal, replicate 2	retest calcium signal, replicate 1	retest calcium signal, replicate 2	Call
CG6834	DRSC16125	151	105			inactive
RpS6 (Ribosomal protein S6)	DRSC18712	115	96.6			inactive
spag4 (sperm-associated antigen 4)	DRSC02973	220	191			inactive
CG34435	DRSC18086	130	94.7			inactive
CG10543	DRSC04081	188	111			inactive
CG10543	DRSC23102	147	186			inactive
CG16965	DRSC02547	96.1	109			inactive
CG42709	DRSC10277	155	95.5			inactive
Muc30E (Mucin 30E)	DRSC01101	199	130	6075	132	inactive
CG31777	DRSC00201	84	115			inactive
nompA (no mechanoreceptor potential A)	DRSC06329	132	201			inactive
CG8750	DRSC11037	133	109			inactive
Osi23 (Osiris 23)	DRSC15074	149	133			inactive
CG31688	DRSC02117	224	97.6			inactive
CG31688	DRSC02682	154	97.7			inactive
cue (cueball)	DRSC08248	156	119			inactive
Pig1 (Pre-intermoult gene 1)	DRSC18698	119	132			inactive
CG13747	DRSC06418	109	99.7			inactive
boil (boilerman)	DRSC17872	263	84.8			inactive
v (vermilion)	DRSC20383	98.3	74.5			inactive
P5CDh1 (delta-1-Pyrroline-5-carboxylate dehydrogenase 1)	DRSC11801	126	114			inactive
sano (serrano)	DRSC06165	114	158			inactive
Sfp53D (Seminal fluid protein 53D)	DRSC05625	103	81.1			inactive
CG4502	DRSC02755	81.5	150			inactive
CG4502	DRSC23237	79	152			inactive
DMAP1 (DNA methyltransferase 1 associated protein 1)	DRSC06044	106	77.8			inactive
Usp5 (Ubiquitin specific protease 5)	DRSC08244	84.3	98.7			inactive
CG42564	DRSC12518	124	145			inactive
obe (obelus)	DRSC15736	108	152			inactive
GstS1 (Glutathione S transferase S1)	DRSC07436	114	123			inactive
Nup133 (Nucleoporin 133kD)	DRSC16150	145	227			inactive
Caf1-180 (Chromatin assembly factor 1, p180 subunit)	DRSC17807	135	64.1			active
Vha14-2 (Vacuolar H[+] ATPase 14kD subunit 2)	DRSC12145	100	134			inactive
Pkn (Protein kinase N)	DRSC06809	127	127			inactive
Pkn (Protein kinase N)	DRSC06810	131	117			inactive

2 entries from above, set out differently:
CG31688 [DRSC02117]: calcium signal, replicate 1 = 224; calcium signal, replicate 2 = 97.6; Call = inactive
CG31688 [DRSC02682]: calcium signal, replicate 1 = 154; calcium signal, replicate 2 = 97.7; Call = inactive
